Data from publication PMC7819943, “Rice protein-binding microarrays: a tool to detect cis-acting elements near promoter regions in rice”.
The list shows a part of the results.

Chains of the proteins cited; added tags and fusions are not shown.
UniProt Q0JBA9, entry or part of it: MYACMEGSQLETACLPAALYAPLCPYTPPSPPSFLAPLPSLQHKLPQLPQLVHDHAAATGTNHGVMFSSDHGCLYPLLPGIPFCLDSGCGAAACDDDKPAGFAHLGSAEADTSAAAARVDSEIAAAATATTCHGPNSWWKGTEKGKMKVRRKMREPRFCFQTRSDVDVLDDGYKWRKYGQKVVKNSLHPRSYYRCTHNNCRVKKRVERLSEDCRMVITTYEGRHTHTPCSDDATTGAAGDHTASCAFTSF

Each sequence was assayed against OsWRKY34 (Oryza sativa, UniProt Q0JBA9 1-250) (assay: protein-binding microarray (RPBM); PBS, 2% BSA, 51.3 ng/ul salmon testes DNA, 50 uM zinc acetate, 200 nM TF, 25 C, 1 h; high values mean tight binding). Details: protein: recombinant; tags: N-terminal polyhistidine and DsRed monomer fusion (pET32a); label: CyDye5-dUTP incorporated in the synthesized complementary strand; 3' TTTTT single-stranded linker to array surface; dsDNA, one strand shown.
Outline: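 The binding signal for each feature is its fluorescence intensity in arbitrary units. An Axon 4000B scanner was used to read a custom Agilent array that had been made double-stranded with Cy5-dUTP primer extension, blocked with 2% BSA, incubated at 25 °C for 1 h with 200 nM protein in PBS, 2% BSA, salmon testes DNA and 50 µM zinc acetate, and washed. The protein was an N-terminal polyhistidine–DsRed transcription factor fusion from E. coli BL21-CodonPlus, purified on Ni–NTA.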
With “TGCTTTTATGTCCCCAACGCCCCAACTACTATCGGTTGCACGGAGTCACCTAGTGCAG” the binding signal was 8030 fluorescence intensity (a.u.).
“GGTAGGTAGTCCATTGCCCCGTCTGGTATACCTACAAGTTCGGAGTCACCTAGTGCAG” was tested, and the binding signal was 8160 fluorescence intensity (a.u.).
“TCACTCCAACGATCACACCATCTATCCTCTCTACATTGAGCGGAGTCACCTAGTGCAG” was tested, and the binding signal was 8230 fluorescence intensity (a.u.).
“GTACTTGTGGCCGTGCTGTTTGACCCTTGCACAGTTGCAACGGAGTCACCTAGTGCAG” was tested, and the binding signal was 11400 fluorescence intensity (a.u.).
With “CGATACTTTCATGGGTGGGTCCTATGTTGCACGGTTGGTTCGGAGTCACCTAGTGCAG” the binding signal was 22900 fluorescence intensity (a.u.).
In the case of “GCTGTAGAAATTTCTCCTTCTTTGTTAAATGTATGTCTTTCGGAGTCACCTAGTGCAG”, the binding signal is reported as 9540 fluorescence intensity (a.u.).
With “CTTTGCTACGTGTATTTTTTGTGGCCATAGCTTCAATGTGCGGAGTCACCTAGTGCAG” the binding signal was 8600 fluorescence intensity (a.u.).
For “CGCCGCCATCTCGCCGCCGCCGCCACCTCACCCAACCAATCGGAGTCACCTAGTGCAG”, the binding signal was 9680 fluorescence intensity (a.u.).
In the case of “TATTCTTTGCCTGAAAGCAATATTGTCAGTGGCTTGCTTACGGAGTCACCTAGTGCAG”, the binding signal is reported as 8110 fluorescence intensity (a.u.).
“ACCTTTCGCGTTCACCTCAGCTCAGCTCGTCTCTCTGACTCGGAGTCACCTAGTGCAG” was tested, and the binding signal was 14300 fluorescence intensity (a.u.).
With “TGTACAAATCCTCCGTTTCTTATTTATGATTGAATTTCATCGGAGTCACCTAGTGCAG” the binding signal was 8080 fluorescence intensity (a.u.).
In the case of “AAACTTTCCTACGCACATAAACTTCCAACTTTTCCGTCACCGGAGTCACCTAGTGCAG”, the binding signal is reported as 9800 fluorescence intensity (a.u.).
For “TGCATGTTCCATTTTTATAACAATTTTCAAATACCTTACACGGAGTCACCTAGTGCAG”, the binding signal was 8140 fluorescence intensity (a.u.).
“TATGGTTGTTTGGTTTGTTTAAAGGGAGTACATATACATCCGGAGTCACCTAGTGCAG” was tested, and the binding signal was 8890 fluorescence intensity (a.u.).
For “TTGGGTTGATATGTTGCTGAATGGTCATTTTCTGGGTTAACGGAGTCACCTAGTGCAG”, the binding signal was 11200 fluorescence intensity (a.u.).
With “ATTTGTTCATCTGGTTGCGACGCGTTCCTTAACTCTTTTTCGGAGTCACCTAGTGCAG” the binding signal was 9120 fluorescence intensity (a.u.).
For “GTGCGATTTGTTTGTCCCTTTTGTCCGCGGATTTCCCGGGCGGAGTCACCTAGTGCAG”, the binding signal was 9300 fluorescence intensity (a.u.).
For “CTCTCTTGTGCTTACTACTTATAAGTTTTAACTGAATGGACGGAGTCACCTAGTGCAG”, the binding signal was 8560 fluorescence intensity (a.u.).
For “AAAGATCGCTTTTTCCGTGGTAGGCTTCTCCATTTTATTTCGGAGTCACCTAGTGCAG”, the binding signal was 10700 fluorescence intensity (a.u.).
With “GGAGTAGTATTTCTGAAGTTTACGGGGCGGCTGATGCTTCCGGAGTCACCTAGTGCAG” the binding signal was 13900 fluorescence intensity (a.u.).
For “GATACATTGCACATTATACTTCATATATAGTATTATAATTCGGAGTCACCTAGTGCAG”, the binding signal was 8610 fluorescence intensity (a.u.).
With “TCCTTTTTCTTTTTTCTCTTGCCACATTGACATTTTATCGCGGAGTCACCTAGTGCAG” the binding signal was 10400 fluorescence intensity (a.u.).
In the case of “ACTAAATTGTTGCCCATTTATCCTAGCTATATAGTAGCTACGGAGTCACCTAGTGCAG”, the binding signal is reported as 8480 fluorescence intensity (a.u.).
For “CTGTTGTTCTGTATATTGTGGTGGGTGTTGATTTGCGGGTCGGAGTCACCTAGTGCAG”, the binding signal was 12800 fluorescence intensity (a.u.).
“CACATGTCATTGTCACACACACGCGCGCCCCATTGGACATCGGAGTCACCTAGTGCAG” was tested, and the binding signal was 9860 fluorescence intensity (a.u.).
“CTCCACCACTAATTCCTTCTTGCCACATGTGGTCGCTGATCGGAGTCACCTAGTGCAG” was tested, and the binding signal was 11000 fluorescence intensity (a.u.).
“GGTGGTGGTGGTGTGCGCGGCTGAGCCGGACGCGGACAGGCGGAGTCACCTAGTGCAG” was tested, and the binding signal was 11300 fluorescence intensity (a.u.).
In the case of “ATTTATCTTTTTATTCTATTTATGGAATCGTCCAACCAAACGGAGTCACCTAGTGCAG”, the binding signal is reported as 9130 fluorescence intensity (a.u.).
In the case of “CGGTCGCTCGTCTCCGTCTCCGTCTCCGCCACCGCCACCGCGGAGTCACCTAGTGCAG”, the binding signal is reported as 11800 fluorescence intensity (a.u.).
For “TGCACCTCCTCCTTGGCCATGGTATGTCTCTCCCCTATCTCGGAGTCACCTAGTGCAG”, the binding signal was 9170 fluorescence intensity (a.u.).
“TTGACCTGTTGACTTAGGGTTAGATTATATATGTCTGTTACGGAGTCACCTAGTGCAG” was tested, and the binding signal was 8250 fluorescence intensity (a.u.).
“GATGGTTGGGTCTCATATGCAATGTTTCTTTGATTTTTGTCGGAGTCACCTAGTGCAG” was tested, and the binding signal was 8470 fluorescence intensity (a.u.).
With “TCCCACACGCCATGACGCCAACCAACCCAAGCACAGCAGTCGGAGTCACCTAGTGCAG” the binding signal was 9360 fluorescence intensity (a.u.).
In the case of “CAGCAGCGGCGGCGGCGGCGGCGGCGGGGTGGTGGAACCTCGGAGTCACCTAGTGCAG”, the binding signal is reported as 9080 fluorescence intensity (a.u.).
With “TGTGTTGTTGCTTTTACCATCGCCTTCCCCACCACCTTCTCGGAGTCACCTAGTGCAG” the binding signal was 8650 fluorescence intensity (a.u.).
“TTAATGTATGACGCTGTTCACTTTTCATCTAACGCTTAACCGGAGTCACCTAGTGCAG” was tested, and the binding signal was 9070 fluorescence intensity (a.u.).
With “TTAGCTCATCCTTCCATGCACCACACCTGCTCGACCACATCGGAGTCACCTAGTGCAG” the binding signal was 9700 fluorescence intensity (a.u.).
In the case of “ATTTTAAACGGTTTTGATAGTTAGAGGGGTCGATTTATCTCGGAGTCACCTAGTGCAG”, the binding signal is reported as 8290 fluorescence intensity (a.u.).
For “ATTTGACACCGTTAACCTTTTAGCACATGTTTGACCGTTCCGGAGTCACCTAGTGCAG”, the binding signal was 11900 fluorescence intensity (a.u.).
In the case of “TATTTGATCCCGTTTTTTAAAATCGAGCTTACCGTTTGACCGGAGTCACCTAGTGCAG”, the binding signal is reported as 10500 fluorescence intensity (a.u.).
With “AAACTATGCACTTTTTATCTGTTAACATAGCCTACACTGTCGGAGTCACCTAGTGCAG” the binding signal was 10600 fluorescence intensity (a.u.).
With “CAATCCCATCAGTAATGTGTTTCACACCGTCGTATTTGCCCGGAGTCACCTAGTGCAG” the binding signal was 9840 fluorescence intensity (a.u.).
With “GCGCTGTGGATTGGTTGTGTCTTTTCTTGTATATAAACGCCGGAGTCACCTAGTGCAG” the binding signal was 11400 fluorescence intensity (a.u.).
With “TGCGAGCTAGCTCTGCTAGGTCGCCACCGTCGAGGCCCTCCGGAGTCACCTAGTGCAG” the binding signal was 8050 fluorescence intensity (a.u.).
“TCGCCTCATCTTTTATTTGCACCATGATACTGCCGGTATACGGAGTCACCTAGTGCAG” was tested, and the binding signal was 10900 fluorescence intensity (a.u.).
With “TCTACTATTTTAGGGTTTGGCAGGTTTAGATATTGATATTCGGAGTCACCTAGTGCAG” the binding signal was 11400 fluorescence intensity (a.u.).
In the case of “GGTTTGTTGTTTGGATATCATAGTTTTTGAATGAGGAGAACGGAGTCACCTAGTGCAG”, the binding signal is reported as 13800 fluorescence intensity (a.u.).
“TCTTCTCTGTTGCCGTAATGCAGAGGATCCATGCCTGTCACGGAGTCACCTAGTGCAG” was tested, and the binding signal was 8400 fluorescence intensity (a.u.).
In the case of “CATCCGTATTTGAGTCAGTTTTAAAGTTTGTTCGCTTTTGCGGAGTCACCTAGTGCAG”, the binding signal is reported as 8420 fluorescence intensity (a.u.).
“TTGGCCGAGGTCCTAGTTACGGTTTTTCTCAGTCGCATTACGGAGTCACCTAGTGCAG” was tested, and the binding signal was 11300 fluorescence intensity (a.u.).
With “TTCTCCTTTTTTAGACTGGTTTCATATGTTTGTGGTATAACGGAGTCACCTAGTGCAG” the binding signal was 11200 fluorescence intensity (a.u.).
With “TCACTGACCAAACTACCAAACTCATGCTCCTTAGTAGTTCCGGAGTCACCTAGTGCAG” the binding signal was 9010 fluorescence intensity (a.u.).
For “GTGTGTTGGTTGTCACAGTACTGTGTGGTGGTGGTGGAAGCGGAGTCACCTAGTGCAG”, the binding signal was 9220 fluorescence intensity (a.u.).
In the case of “CCCACCTGCTCCCAATCTCCATTCTCCTCATCACATATCCCGGAGTCACCTAGTGCAG”, the binding signal is reported as 10600 fluorescence intensity (a.u.).
